PubChem BioAssay AID1224830 | NIAID | 2016
In all, the deposit lists about 18,000 reagents; shown is an unselected part. About 2,900 of them (16%) count as active. 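Calls are made per well; low scores hint the gene aids the LPS response, high scores that it dampens it.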 Repeated entries: four replicate wells of each siRNA pool.

Screen: 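Genes whose knock-down alters the TNF-alpha reporter response to LPS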 (primary screen)
Cell system: human THP-1 monocytic leukaemia cells, TNF dual-luciferase reporter clone, PMA-differentiated to macrophage-like cells
Reagent: siRNA pool against human genes, 50 nM
Timing: LPS for 4 h, given about 3 days after siRNA transfection
Treatment: bacterial LPS (TLR4 ligand), 10 ng/ml
Detection: 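TNF firefly reporter luminescence divided by renilla, normalised to the plate median, then turned into a robust z-score for each replicate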
Reading the numbers: TNF reporter robust z-score: higher = stronger TNF reporter response to LPS
Active means: 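Each well counts as active if its z-score is over 2.8 or under -1.5; controls are left without a call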

| target | TNF reporter robust z-score | activity call |
| --- | --- | --- |
| MIIP (GeneID 60672) | -0.33 | inactive |
| MIIP (GeneID 60672) | -0.01 | inactive |
| MIIP (GeneID 60672) | -0.84 | inactive |
| MIIP (GeneID 60672) | -0.26 | inactive |
| EHHADH (GeneID 1962) | 0.65 | inactive |
| EHHADH (GeneID 1962) | 0.93 | inactive |
| EHHADH (GeneID 1962) | 0.96 | inactive |
| EHHADH (GeneID 1962) | 1.57 | inactive |
| ITGA3 (GeneID 3675) | 1.19 | inactive |
| ITGA3 (GeneID 3675) | 0.34 | inactive |
| ITGA3 (GeneID 3675) | 0.85 | inactive |
| ITGA3 (GeneID 3675) | 0.74 | inactive |
| SCGB2B2 (GeneID 284402) | 2.29 | inactive |
| SCGB2B2 (GeneID 284402) | 0.78 | inactive |
| SCGB2B2 (GeneID 284402) | -0.74 | inactive |
| SCGB2B2 (GeneID 284402) | -0.78 | inactive |
| PSG7 (GeneID 5676) | -0.27 | inactive |
| PSG7 (GeneID 5676) | -0.05 | inactive |
| PSG7 (GeneID 5676) | 1.62 | inactive |
| PSG7 (GeneID 5676) | -0.23 | inactive |
| ENTR1 (GeneID 10807) | 1.07 | inactive |
| ENTR1 (GeneID 10807) | 1.43 | inactive |
| ENTR1 (GeneID 10807) | 1.11 | inactive |
| ENTR1 (GeneID 10807) | 2.01 | inactive |
| TDRP (GeneID 157695) | 0.13 | inactive |
| TDRP (GeneID 157695) | -0.22 | inactive |
| TDRP (GeneID 157695) | -0.51 | inactive |
| TDRP (GeneID 157695) | 0.97 | inactive |
| INSL5 (GeneID 10022) | -0.07 | inactive |
| INSL5 (GeneID 10022) | -0.14 | inactive |
| INSL5 (GeneID 10022) | -0.5 | inactive |
| INSL5 (GeneID 10022) | -0.08 | inactive |

An excerpt of the results above:
| target | TNF reporter robust z-score | activity call |
| --- | --- | --- |
| ITGA3 (GeneID 3675) | 0.85 | inactive |
| ITGA3 (GeneID 3675) | 0.74 | inactive |
| SCGB2B2 (GeneID 284402) | 2.29 | inactive |
| SCGB2B2 (GeneID 284402) | 0.78 | inactive |
| SCGB2B2 (GeneID 284402) | -0.74 | inactive |

The results go on.
| target | TNF reporter robust z-score | activity call |
| --- | --- | --- |
| OR10G8 (GeneID 219869) | 0.09 | inactive |
| OR10G8 (GeneID 219869) | 0.39 | inactive |
| OR10G8 (GeneID 219869) | -0.17 | inactive |
| OR10G8 (GeneID 219869) | -0.07 | inactive |
| PRIM2 (GeneID 5558) | -0.12 | inactive |
| PRIM2 (GeneID 5558) | -0.4 | inactive |
| PRIM2 (GeneID 5558) | 2.36 | inactive |
| PRIM2 (GeneID 5558) | -0.38 | inactive |
| SLC22A1 (GeneID 6580) | 0.35 | inactive |
| SLC22A1 (GeneID 6580) | 0.02 | inactive |
| SLC22A1 (GeneID 6580) | -0.7 | inactive |
| SLC22A1 (GeneID 6580) | 1.38 | inactive |
| ALOX15B (GeneID 247) | 2.12 | inactive |
| ALOX15B (GeneID 247) | 2.56 | inactive |
| ALOX15B (GeneID 247) | 1.62 | inactive |
| ALOX15B (GeneID 247) | 3.71 | active |
